From patent US8686113B2 (priority 2009, dated 2014)

Experiments:
Format in all cases: cell-based
HeLa cells = assay: Fluorescence microscopy of labeled peptides; conditions: 40 μmol/L, 2 h
SH-SY5Y cells = assay: Fluorescence microscopy of labeled peptides; conditions: 40 μmol/L, 2 h
E. coli BL21 A1 = assay: Confocal laser scanning microscopy, bacteria; conditions: 30 μmol/L, TAMRA quench, time not stated
M. luteus 10240 = assay: Confocal laser scanning microscopy, bacteria; conditions: 30 μmol/L, TAMRA quench, incubation for 1 h

Substance | internalization (fluorescence) in HeLa cells (HeLa cells) | internalization (fluorescence) in SH-SY5Y cells (SH-SY5Y cells) | internalization in E. coli (E. coli BL21 A1) | internalization (fluorescence) in M. luteus (M. luteus 10240)
H-CFVDKGSYLPRPTPPRPIYNRN-NH2 [SEQ ID NO. 92, reference compound] | no internalization | no internalization | internalize in E. coli | –
CF-RQIKIWFQNRRMKWKKC-(CH2CO-VDKGSYLPRPTPPRPIYNRN-NH2)-OH [SEQ ID NO. 100] | internalize | – | – | accumulates in M. luteus
